Drawing on publication PMC5681675, this text covers binding for one substance.

Sequences of proteins named here, by UniProt entry; tags and fusion partners are left off. Residues count along the entry.
UniProt O95831, residues 102-613: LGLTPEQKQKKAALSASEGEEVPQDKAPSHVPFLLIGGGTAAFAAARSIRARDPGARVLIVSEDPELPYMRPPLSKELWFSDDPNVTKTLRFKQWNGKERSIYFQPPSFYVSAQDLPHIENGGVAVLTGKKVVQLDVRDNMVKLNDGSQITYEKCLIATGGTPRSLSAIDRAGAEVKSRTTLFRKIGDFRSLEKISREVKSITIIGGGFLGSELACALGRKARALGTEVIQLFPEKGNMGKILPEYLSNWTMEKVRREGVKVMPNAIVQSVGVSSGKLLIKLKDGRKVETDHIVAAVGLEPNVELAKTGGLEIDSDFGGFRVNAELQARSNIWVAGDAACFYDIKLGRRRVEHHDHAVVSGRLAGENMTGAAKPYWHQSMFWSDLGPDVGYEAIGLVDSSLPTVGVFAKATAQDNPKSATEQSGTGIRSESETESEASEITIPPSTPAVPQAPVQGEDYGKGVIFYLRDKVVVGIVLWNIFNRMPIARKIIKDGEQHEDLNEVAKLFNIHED

The target of the assay is T1, FLAG-NPRL2-GFP (human) (UniProt Q8WTW4).
T1 sequence: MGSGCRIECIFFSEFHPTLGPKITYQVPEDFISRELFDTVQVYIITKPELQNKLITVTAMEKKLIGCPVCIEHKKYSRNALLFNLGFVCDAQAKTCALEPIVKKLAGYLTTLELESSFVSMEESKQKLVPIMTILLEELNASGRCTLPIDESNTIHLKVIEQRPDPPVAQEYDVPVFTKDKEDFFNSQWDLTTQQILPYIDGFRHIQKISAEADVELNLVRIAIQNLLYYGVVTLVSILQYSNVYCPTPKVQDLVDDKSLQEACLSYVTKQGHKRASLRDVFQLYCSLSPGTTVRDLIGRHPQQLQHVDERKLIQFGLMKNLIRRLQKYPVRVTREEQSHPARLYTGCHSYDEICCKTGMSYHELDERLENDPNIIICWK
The assay is described as follows: co-IP; immunoprecipitates from HEK293 cells stably expressing GFP or FLAG-NPRL2-GFP, analysed by immunoblotting. In general terms: Immunoblotting shows a protein as a band on a membrane.

These are yes or no findings as the source states them, for the method shown. Binding seen in cells or lysates may run through a third protein. Some results given as binding are weak or reduced against the parent protein; the word gives no strength. Sequences can lack the tags named with a protein.

Turning to “apoptosis-inducing factor (AIF) (from UniProt O95831 102-613)”, the binding result is given as “binds”.
